From patent US20050048603A1 (priority 2001, published 2005)
These are yes or no findings as the source states them, for the method shown. Some entries that bind do so weakly or less than the wild type. Sequences can lack the tags named with a protein.

Target: mycoAC holoenzyme expressed in E. coli (N-terminal His6-tag) (Mycobacterium tuberculosis) (UniProt P9WQ35)
Experiment: SDS-PAGE and Western blot of the holoenzyme expressed in E. coli; 92 kDa band

B1: mycoAC holoenzyme expressed in E. coli (N-terminal His6-tag) (enzyme)
chain: MRGSHHHHHHGSMAARKCGAPPIAADGSTRRPDCVTAVRTQARAPTQHYAESVARRQRVLTITAWLAVVVTGSFALMQLATGAGGWYIALINVFTAVTFAIVPLLHRFGGLVAPLTFIGTAYVAIFAIGWDVGTDAGAQFFFLVAAALVVLLVGIEHTALAVGLAAVAAGLVIALEFLVPPDTGLQPPWAMSVSFVLTTVSACGVAVATVWFALRDTARAEAVMEAEHDRSEALLANMLPASIAERLKEPERNIIADKYDEASVLFADIVGFTERASSTAPADLVRFLDRLYSAFDELVDQHGLEKIKVSGDSYMVVSGVPRPRPDHTQALADFALDMTNVAAQLKDPRGNPVPLRVGLATGPVVAGVVGSRRFFYDVWGDAVNVASRMESTDSVGQIQVPDEVYERLKDDFVLRERGHINVKGKGVMRTWYLIGRKVAADPGEVRGAEPRTAGV
  binding: binds
